# Reference: article PMC12859043
# The chains behind the UniProt entries cited, without tags or fusion partners. Where a name states a change or a piece, a line headed by the entry shows the natural chain unless it says otherwise. Residues count along the entry.
# UniProt Q68DV7, residues 24-783: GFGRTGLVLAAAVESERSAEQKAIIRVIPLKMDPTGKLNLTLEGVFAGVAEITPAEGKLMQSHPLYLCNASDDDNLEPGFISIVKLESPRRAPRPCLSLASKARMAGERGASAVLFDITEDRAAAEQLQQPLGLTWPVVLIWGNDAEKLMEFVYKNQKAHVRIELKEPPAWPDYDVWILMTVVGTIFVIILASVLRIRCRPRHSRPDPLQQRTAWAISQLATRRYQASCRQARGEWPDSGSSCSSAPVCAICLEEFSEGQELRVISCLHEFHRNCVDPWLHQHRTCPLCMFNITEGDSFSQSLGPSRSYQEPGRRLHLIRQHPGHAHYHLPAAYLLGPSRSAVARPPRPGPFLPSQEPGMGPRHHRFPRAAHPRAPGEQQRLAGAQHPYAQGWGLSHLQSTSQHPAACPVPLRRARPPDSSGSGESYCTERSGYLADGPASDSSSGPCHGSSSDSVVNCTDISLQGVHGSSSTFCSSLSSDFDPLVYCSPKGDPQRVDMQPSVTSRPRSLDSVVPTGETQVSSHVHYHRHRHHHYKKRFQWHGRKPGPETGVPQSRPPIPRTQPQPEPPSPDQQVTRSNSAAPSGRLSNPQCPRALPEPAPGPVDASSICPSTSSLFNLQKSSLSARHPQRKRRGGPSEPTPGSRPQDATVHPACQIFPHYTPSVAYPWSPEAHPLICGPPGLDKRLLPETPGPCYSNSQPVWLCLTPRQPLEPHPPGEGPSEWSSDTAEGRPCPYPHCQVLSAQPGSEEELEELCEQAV
# UniProt P49674: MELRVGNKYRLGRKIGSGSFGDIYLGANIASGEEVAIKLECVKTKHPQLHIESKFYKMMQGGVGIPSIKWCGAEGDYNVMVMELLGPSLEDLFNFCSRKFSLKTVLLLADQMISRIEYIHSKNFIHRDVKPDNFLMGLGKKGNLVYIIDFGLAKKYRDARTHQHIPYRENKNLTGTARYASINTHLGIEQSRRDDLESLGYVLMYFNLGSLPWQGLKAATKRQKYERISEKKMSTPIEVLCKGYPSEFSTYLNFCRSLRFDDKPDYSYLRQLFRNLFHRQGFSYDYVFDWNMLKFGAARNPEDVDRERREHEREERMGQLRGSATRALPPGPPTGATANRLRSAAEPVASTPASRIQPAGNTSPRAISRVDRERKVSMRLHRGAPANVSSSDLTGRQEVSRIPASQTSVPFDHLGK
# No constants are given. Whether binding was seen depends on the method and setting. Binding seen in cells or lysates may run through a third protein. Some entries that bind do so weakly or less than the wild type. For some of these results: Sequences can lack the tags named with a protein.
# How the values were obtained:
# [1] = target: T1, GFP-tagged PRICKLE3 N-terminal fragment (aa 1–375) (human) (UniProt O43900); test: co-IP; anti-GFP IP of GFP-tagged PRICKLE3 deletion constructs; Western blot for CK1ε
# T1 sequence: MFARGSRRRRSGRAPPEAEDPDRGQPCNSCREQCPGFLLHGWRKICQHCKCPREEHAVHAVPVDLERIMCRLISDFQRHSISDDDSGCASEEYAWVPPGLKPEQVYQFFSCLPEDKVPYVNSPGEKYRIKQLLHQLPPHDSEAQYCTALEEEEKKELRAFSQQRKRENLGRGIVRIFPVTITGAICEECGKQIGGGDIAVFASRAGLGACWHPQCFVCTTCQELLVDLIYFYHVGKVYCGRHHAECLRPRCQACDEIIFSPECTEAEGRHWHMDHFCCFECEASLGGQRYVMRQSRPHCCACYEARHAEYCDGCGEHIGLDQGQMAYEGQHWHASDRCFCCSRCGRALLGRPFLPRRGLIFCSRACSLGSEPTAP
# [2] = target: T2, GFP-tagged PRICKLE3 C-terminal fragment (aa 372–615) (human) (UniProt O43900); test: as above
# T2 sequence: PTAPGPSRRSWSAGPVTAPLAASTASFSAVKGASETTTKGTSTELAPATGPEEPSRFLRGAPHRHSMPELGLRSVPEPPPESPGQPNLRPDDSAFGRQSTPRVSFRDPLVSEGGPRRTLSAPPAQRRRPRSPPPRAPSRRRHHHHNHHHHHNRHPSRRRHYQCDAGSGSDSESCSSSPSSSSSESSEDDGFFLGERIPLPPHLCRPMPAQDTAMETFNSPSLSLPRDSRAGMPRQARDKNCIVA
# [3] = target: T3, HA-tagged PRICKLE3 (human) (UniProt O43900); test: co-IP; anti-HA IP (IgG control) from HEK T-REx 293 PRICKLE3 or PRICKLE1 TetON cells induced overnight with doxycycline; Western blot for endogenous proteins
# T3 sequence: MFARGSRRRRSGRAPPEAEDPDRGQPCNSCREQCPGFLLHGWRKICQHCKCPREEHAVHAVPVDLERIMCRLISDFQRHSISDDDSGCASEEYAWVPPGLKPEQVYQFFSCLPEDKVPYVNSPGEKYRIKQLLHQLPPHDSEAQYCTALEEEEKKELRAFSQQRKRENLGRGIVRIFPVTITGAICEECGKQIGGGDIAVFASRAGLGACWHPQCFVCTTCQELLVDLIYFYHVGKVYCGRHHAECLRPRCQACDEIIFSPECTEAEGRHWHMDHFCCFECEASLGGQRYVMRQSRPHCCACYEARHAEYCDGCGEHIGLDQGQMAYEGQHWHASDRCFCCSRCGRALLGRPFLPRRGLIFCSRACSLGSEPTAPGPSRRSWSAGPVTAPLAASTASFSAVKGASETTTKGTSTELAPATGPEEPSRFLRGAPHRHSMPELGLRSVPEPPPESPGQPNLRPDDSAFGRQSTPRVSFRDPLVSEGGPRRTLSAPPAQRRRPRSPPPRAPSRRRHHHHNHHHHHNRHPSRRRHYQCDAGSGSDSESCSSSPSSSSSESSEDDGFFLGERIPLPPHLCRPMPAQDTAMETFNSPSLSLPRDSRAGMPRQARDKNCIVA
# RNF43-FLAG (human) = RNF43-FLAG (human) (UniProt Q68DV7); test: co-IP; HEK T-REx 293 PRICKLE3 TetON cells transfected with RNF43-FLAG and EGFP-VANGL2, with or without overnight doxycycline induction of HA-PRICKLE3; Western blot, endogenous CK1ε quantified by densitometry
binding [1],binding [2],binding [3],binding (RNF43-FLAG (human)),Substance
binds,binds,,,"CK1ε (co-IP with the GFP-PRICKLE3 deletion constructs, Fig. 5d) (from UniProt P49674 1-416) (enzyme)"
,,binds,binds,Casein kinase 1ε (endogenous) (from UniProt P49674 1-416) (enzyme)
